# Measured values taken from PubChem BioAssay AID445 (National Center for Advancing Translational Sciences (NCATS), 2006).
# The other results are listed elsewhere or left out. Further columns of the screen follow, without active or inactive calls. Most of these compounds were active or inconclusive in the main read-out, so they are no random draw. Potencies come from curve fits of mixed quality, noted in brackets.
# Assay: IkB Signaling
# Conditions: ABC-DLBCL IkBa-CBG/CBR dual luciferase ratio (green luciferase fused to IkBa over red control in OCI-Ly3 lymphoma cells), 4 h
# Method in brief: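 Curves were fitted separately to fusion (green), unfused (red) and ratio luminescence, then classed by r2, magnitude and activity. Cells: OCI-Ly3, 4 h compound plus doxycycline at 37C; 10 uM MG-132 defined full response.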
# [1] = measured here: control luc red channel unless noted
smiles,measurement,setting,value
CCn1c(SCc2nc3ccccc3s2)nnc1-c1cccs1,AC50,[1],"5.01 µM [falling, partial curve]"
Cc1ccccc1NC(=O)c1ccc2nc(Cc3ccccc3)oc2c1,AC50,[1],"25.1 µM [falling, single point]"
CC(=O)C1=C(C)NC(SCC(=O)c2ccc(Cl)cc2Cl)=C(C#N)C1c1ccco1 (configuration not stated),AC50,[1],"12.6 µM [falling, partial curve]"
C=Cc1ccc(Cn2c(C(=O)O)c(CNCc3cccs3)c3ccc(C)cc32)cc1,AC50,[1],"15.8 µM [falling, partial curve]"
COc1ccccc1C(=O)Nc1c(C(=O)N(CCN(C)C)Cc2ccco2)oc2ccccc12,AC50,[1],"39.8 µM [falling, single point]"
Cn1c(SCc2ccc(F)cc2)nc2c([nH]c3ccccc32)c1=O,AC50,[1],"0.2 µM [falling, full curve, poor fit]"
COc1cccc(CNC(=O)C2CCN(c3nc4ccc(Cl)cc4[nH]3)CC2)c1,AC50,[1],"12.6 µM [falling, partial curve]"
Cc1ccc(C2c3c(-c4ccccc4O)n[nH]c3C(=O)N2CCCO)cc1 (configuration not stated),AC50,[1],"39.8 µM [falling, single point]"
CCOC(=O)c1cccc(NC(=O)c2ccc3c(c2)nnn3C2CCCC2)c1,AC50,[1],"31.6 µM [falling, single point]"
Cc1ccc(Cn2c(C(=O)Nc3cccc(Cl)c3)cc3sccc32)cc1,AC50,[1],"39.8 µM [falling, single point]"
COc1ccc2c(c1)CC(NC(=O)Nc1cc(Cl)ccc1OC)CO2 (configuration not stated),AC50,[1],"0.2 µM [falling, partial curve]"
CSc1nc(C)cc(Nc2c(C)cc(C)cc2C)n1,AC50,[1],"31.6 µM [falling, single point]"
COC(=O)c1ccc(CSc2nc(C(F)(F)F)c3c(c2C#N)CCC3)o1,AC50,[1],"39.8 µM [rising, single point] [measured here: IkB-luc green channel]"
COc1cccc(C(=O)Nc2ccc(Cl)c(-c3nc4ccccc4[nH]3)c2)c1,AC50,[1],"25.1 µM [falling, partial curve]"
O=C(c1cc(-c2ccc(O)cc2)on1)N1CCc2ccccc2C1,AC50,[1],"20 µM [falling, partial curve]"
Fc1ccc2c(Cl)c(-c3nnc(-c4cccs4)o3)sc2c1,AC50,[1],"0.00794 µM [falling, full curve]"
CC1=C(C(=O)Nc2ccccc2C)C(c2ccncc2)n2nc(SCc3ccccc3)nc2N1 (configuration not stated),AC50,[1],"0.251 µM [falling, partial curve]"
CCN1CCN(c2cc(C)c3cc(NC(=O)c4cccc(C(F)(F)F)c4)ccc3n2)CC1,AC50,[1],"39.8 µM [falling, single point]"
CCOc1ccccc1OCCCC(=O)Nc1ccc(OC)nc1,AC50,[1],"20 µM [falling, partial curve]"
CCOC(=O)c1ccc(NC(=O)CC2C(=O)N(c3cccc(OC)c3)C(=O)N2C2CCCCC2)cc1 (configuration not stated),AC50,[1],"12.6 µM [falling, partial curve]"
Cn1c(=O)oc2cc(S(=O)(=O)NCc3ccncc3)ccc21,AC50,[1],"3.98 µM [falling, full curve, poor fit]"
CCSc1nnc(NC(=O)c2ccccn2)s1,AC50,measured here: IkB-luc green channel,"25.1 µM [rising, partial curve]"
same,AC50,measured here: control luc red channel,"12.6 µM [falling, partial curve]"
CC(C)(C)OC(=O)N1CCC(c2c(C(=O)NCc3ccc(F)cc3)cnn2-c2ccc(F)cc2)CC1,AC50,[1],"7.94 µM [falling, full curve]"
COc1cccc(C(=O)N(Cc2sccc2C)C2CCS(=O)(=O)C2)c1 (configuration not stated),AC50,[1],"3.98 µM [rising, partial curve, poor fit]"
COc1ccc(OCC2c3cc(OC)c(OC)cc3CCN2C(=O)c2ccc(F)cc2)cc1 (configuration not stated),AC50,[1],"25.1 µM [falling, partial curve]"
Cc1ccc(-c2cn3c(n2)sc2cc(C(=O)NCCCN4CCCCC4)ccc23)cc1,AC50,[1],"6.31 µM [falling, partial curve]"
O=S(=O)(NCc1nc2cccnc2n1Cc1ccc(F)cc1)c1ccc2c(c1)CCCC2,AC50,[1],"39.8 µM [falling, single point]"
Cc1cc(NC(=O)Cn2c(=O)nc(-c3ccccc3F)c3cc(Cl)ccc32)ccc1Br,AC50,[1],"12.6 µM [falling, partial curve, poor fit]"
O=C(CSc1nnc(-c2ccc(Br)cc2)n1C1CCCCC1)N1CCCC1,AC50,[1],"0.0631 µM [falling, full curve]"
CCc1cccc(C)c1NC(=O)CCn1c(=O)c2cccn2c2ccccc21,AC50,[1],"25.1 µM [falling, partial curve]"
Cc1ccc(-c2nnn(CC(=O)N(CC(=O)NCC3CCCO3)c3ccccc3)n2)o1 (configuration not stated),AC50,[1],"12.6 µM [falling, partial curve]"

# Laid out differently: results already given
smiles	measurement	setting	value
COc1cccc(C(=O)Nc2ccc(Cl)c(-c3nc4ccccc4[nH]3)c2)c1	AC50	[1]	25.1 µM [falling, partial curve]
O=C(c1cc(-c2ccc(O)cc2)on1)N1CCc2ccccc2C1	AC50	[1]	20 µM [falling, partial curve]
Fc1ccc2c(Cl)c(-c3nnc(-c4cccs4)o3)sc2c1	AC50	[1]	0.00794 µM [falling, full curve]
